Consider 52 compounds from PubChem BioAssay AID743402 (Broad Institute, 2014).

Hit rate of the full screen: of about 1,200 compounds, about 140 (12%) were called active.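 How the source made its calls: active means fitted curve falls past -35% activity change at a dose under twice the top valid dose, in every replicate test; inconclusive means replicate tests disagree on the call; inactive means the rest, including activity in the opposite direction.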 This part holds few or none of the hits.

The assay can be described thus: CFTR-F508del correctors, dose response, FRT cells, YFP quenching, cherry-pick (AID 743402).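 Further: compounds act as correctors raising surface CFTR-F508del before acute activation.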 Conditions: FRT CFTR-F508del YFP iodide quenching, 24 h, channel opened with forskolin and a potentiator; at 26 µM (top of the series) unless noted.
On to `Cc1noc(C)c1NC(=O)N(C)C[C@H]1Oc2cc(C#CCC3CCCC3)ccc2S(=O)(=O)N([C@@H](C)CO)C[C@@H]1C`, for which the activity change, negative = more quenching (active) was inactive: -1.85%.

On to `C[C@H]1CN([C@@H](C)CO)S(=O)(=O)c2ccc(C3=CCCCC3)cc2O[C@@H]1CN(C)C(=O)Cc1ccncc1`, for which the activity change, negative = more quenching (active) was inactive: -3.57%.

For the compound `C/C=C/c1ccc([C@H]2[C@@H](CO)N(C(=O)COC)[C@@H]2CNC(=O)CC)cc1`, the activity change, negative = more quenching (active) is inactive: 15.8% [at 23.5 µM].

With `CC[N+]1(CC)CC2=Cc3ccccc3CC2C1` (configuration not stated), the activity change, negative = more quenching (active) is inactive: 0%.

For the compound `COc1ccc(NCC(=O)n2c(C)c(C)c3ccccc32)cc1`, the activity change, negative = more quenching (active) is inactive: 19.9%.

Take `CCOc1ccc(NC(=O)c2cc(OC)nc3ccccc23)cc1`: the activity change, negative = more quenching (active) was inactive: -6.67%.

With `COC(=O)c1ccc(CS(=O)(=O)c2ccc(F)cc2)o1`, the activity change, negative = more quenching (active) is inactive: 3.12%.

With `CCOc1cc(OCC)c(C(C)=O)cc1OCC`, the activity change, negative = more quenching (active) is inactive: 14.3%.

As to `COc1ccc(NC(=O)C2CCCN2C(=O)Nc2cccc(F)c2)cc1` (configuration not stated), the activity change, negative = more quenching (active) was inactive: 9.58%.

Regarding `COCCNC(=O)c1cc(-c2ccc(-c3ccccc3)cc2)nc2ccccc12`, the activity change, negative = more quenching (active) was inactive: 6.7%.

For `Cc1cccc(OCCNC(=O)c2ccc(Cl)c(S(=O)(=O)NCc3cccnc3)c2)c1`, the activity change, negative = more quenching (active) was inactive: 6.25%.

Turning to `C[C@H]1CN([C@@H](C)CO)C(=O)Cc2cc(NC(=O)Nc3ccc(C(F)(F)F)cc3)ccc2O[C@H]1CN(C)S(=O)(=O)c1ccccc1`, the activity change, negative = more quenching (active) is inactive: 7.14%.

`COc1ccc(-c2ccnc(-c3ccc(O)cc3)n2)cc1`: the activity change, negative = more quenching (active) is inactive: -26.7%.

As for `COc1ccc(NC(=O)c2nc(C)c(C3(C)CC(c4cccnc4)=NO3)s2)cc1` (configuration not stated), the activity change, negative = more quenching (active) was inactive: -3.33%.

Turning to `COc1ccc(C(=O)OCc2nc(N)nc(Nc3ccccc3C)n2)cc1OC`, the activity change, negative = more quenching (active) is inactive: -3.33%.

In the case of `CN(CC(=O)NCCc1ccc(S(N)(=O)=O)cc1)CC(=O)Nc1ccc(Cl)c(C(F)(F)F)c1`, the activity change, negative = more quenching (active) was inactive: 1.61%.

For `CC1Cc2nc(SCC(=O)N3CCOCC3)n(-c3ccccc3)c(=O)c2S1` (configuration not stated), the activity change, negative = more quenching (active) was inactive: 3.12%.

`O=C1NN(c2cccc(Br)c2)C(=O)/C1=C\c1ccc(O)cc1`: the activity change, negative = more quenching (active) was inactive: 12.7%.

Consider `Cc1cccc(N2CCN(S(=O)(=O)c3cc(-c4cc(C)no4)ccc3C)CC2C)c1` (configuration not stated), for which the activity change, negative = more quenching (active) was inactive: -1.61%.

Consider `COc1cc(C2CC(=O)N(c3ccc(C)cc3)C(=O)C2)cc(OC)c1OC`, for which the activity change, negative = more quenching (active) was inactive: 0%.

For `COc1ccc2c3c([nH]c2c1)[C@H](CO)N(C(=O)Nc1ccc(F)cc1)CC31CCN(S(=O)(=O)c2ccccc2)CC1`, the activity change, negative = more quenching (active) was inactive: 5.05%.

In the case of `Cc1ccc(NC(=O)c2c(C)noc2C)cc1S(=O)(=O)N1CCOCC1`, the activity change, negative = more quenching (active) was inactive: 10%.

As to `O=C(Nc1ccc(OC(F)(F)F)cc1)c1ccc2c(c1)no[n+]2[O-]`, the activity change, negative = more quenching (active) is inactive: 22.7%.

As for `CC(C)CCNC(=O)C(=O)Nc1ccc2c(c1)N(S(=O)(=O)c1cccs1)CCC2`, the activity change, negative = more quenching (active) was inactive: 14.7%.

Regarding `C=CC(C)(C)c1[nH]cnc1/C=C1\NC(=O)C(C(C)C)NC1=O` (configuration not stated), the activity change, negative = more quenching (active) was inactive: 13.3%.

Regarding `C/C(=N\NC(=O)c1cc(-c2cccs2)nc2ccccc12)c1ccccn1`, the activity change, negative = more quenching (active) is inactive: 16%.

With `O=c1[nH]c(CN2CCN(c3ccc(O)cc3)CC2)nc2scc(-c3ccc(Cl)cc3)c12`, the activity change, negative = more quenching (active) was inactive: 19.6%.

With `O=S1(=O)c2ccc(Br)cc2N2CCC[C@H]2CN1Cc1ccccc1`, the activity change, negative = more quenching (active) is inactive: -23.3%.

On to `COC(=O)c1ccc(/C=C/c2c(-c3ccc(OC)cc3)oc3ccc(N4CCOCC4)cc23)cc1`, for which the activity change, negative = more quenching (active) is inactive: -18.8%.

Take `CC(=O)Nc1ccc(NC(=O)COc2cccc3c2OC(C)(C)C3)cc1`: the activity change, negative = more quenching (active) is inactive: 3.12%.

Turning to `CCCC(=O)Nc1nc2ccc(NC(=O)c3c(F)c(F)c(OC)c(F)c3F)cc2s1`, the activity change, negative = more quenching (active) is inactive: 3.12%.

For `OC[C@@H]1[C@@H](c2ccc(C#CC3(O)CCCC3)cc2)[C@H]2CN(Cc3ccccc3F)CCCCN12`, the activity change, negative = more quenching (active) is inactive: 0%.

Regarding `CC(C)(C)c1ccccc1NC(=O)CN1C(=O)NC2(CCCCCC2)C1=O`, the activity change, negative = more quenching (active) was inactive: 1.61%.

`CC(C)CC#Cc1ccc([C@H]2[C@H](CO)N3C(=O)CN(C(=O)Nc4cc(F)ccc4F)C[C@@H]23)cc1`: the activity change, negative = more quenching (active) was inactive: 3.12%.

As to `CCOC1=C2[C@@H](CN(S(=O)(=O)c3ccc(C)cc3)[C@H]2c2ccc(Cl)cc2)[C@H]2C(=O)N(c3ccccc3)C(=O)[C@H]2C1`, the activity change, negative = more quenching (active) is inactive: 20%.

For the compound `Cc1cc(Cl)cc(C)c1OCCn1ccnc1`, the activity change, negative = more quenching (active) was inactive: 6.46%.

Take `CC(C)C#Cc1ccc([C@@H]2[C@@H](CO)N3C(=O)CN(S(=O)(=O)c4ccccc4)C[C@@H]23)cc1`: the activity change, negative = more quenching (active) is inactive: 15.8%.

For `Oc1ccc2ccccc2c1/C=C/c1ccc2c(Br)cc(Br)c(O)c2n1`, the activity change, negative = more quenching (active) was inactive: 23.3%.

For `Cc1cc(-c2ccccc2)nc(N(C)NC(=O)C2CC2)c1S(C)(=O)=O`, the activity change, negative = more quenching (active) was inactive: -3.33%.

On to `O=C1NC(=Nc2ccc(O)cc2)S/C1=C/c1ccco1`, for which the activity change, negative = more quenching (active) is inactive: -4.74%.

For the compound `COc1ccc(OC)c(Nc2cc(C)nc3ccc(C)cc23)c1`, the activity change, negative = more quenching (active) was inactive: -17.9%.

With `COCCCN=C1NN=C(c2cc(C)n(Cc3ccco3)c2C)CS1`, the activity change, negative = more quenching (active) was inactive: 7.42%.

Consider `Cc1ccc(S(=O)(=O)N2CCOCC2)cc1NC(=O)CSc1n[nH]c(N)n1`, for which the activity change, negative = more quenching (active) was inactive: -3.12%.

Regarding `Cc1cccc(S(=O)(=O)N2C[C@H]3[C@@H](c4ccccc42)[C@H](CO)N3CC2CCCC2)c1`, the activity change, negative = more quenching (active) was inactive: 6.46%.

As for `CCN(CC)CCn1nc2c3c(cccc3c1=O)-c1ccccc1-2`, the activity change, negative = more quenching (active) was inactive: -16.2%.

For the compound `C[C@@H]1CN([C@@H](C)CO)C(=O)c2cc(NC(=O)Nc3cccc4ccccc34)ccc2O[C@@H](C)CCCCO[C@@H]1CN(C)Cc1ccc2c(c1)OCO2`, the activity change, negative = more quenching (active) was inactive: 3.57%.

Regarding `CCCCC(=NCCc1c(C)[nH]c2ccc(OC)cc12)C1=C(O)CC(c2ccccc2)CC1=O` (configuration not stated), the activity change, negative = more quenching (active) is inactive: -17.9%.

Consider `COc1ccc(/C=C2/CCCc3ccccc3C2=O)cc1`, for which the activity change, negative = more quenching (active) is inactive: -23.3%.

Turning to `Cn1cccc1/C=C1\SC(=Nc2ccccc2)NC1=O`, the activity change, negative = more quenching (active) is inactive: -16.7%.

On to `COc1cc(C#Cc2ccc3cc(CCCO)oc(=O)c3c2)cc(OC)c1`, for which the activity change, negative = more quenching (active) was inactive: -20%.

As to `Cc1nn(C2CCS(=O)(=O)C2)c2nc(C3CC3)cc(C(=O)Nc3cccc(C#N)c3)c12` (configuration not stated), the activity change, negative = more quenching (active) was inactive: 5.42%.

As for `Cc1cccc(NC(=S)N/N=C/c2cccc(O)c2)c1C`, the activity change, negative = more quenching (active) was inactive: 0%.
